Measurements as given in patent US8183211B2, “Pharmaceutical compositions for inhibiting intestinal permeability” (University of Maryland, Baltimore, priority 2000, dated 2012).
Ends that are not written are not given here.

Tested on: intraluminal zonulin
Assay: Intraluminal zonulin by sandwich ELISA of intestinal lavage
Format: in vivo, rat

## GGVLVQPG [FZI/0, synthetic octapeptide corresponding to amino acid residues 8-15 of human fetal zonulini]
Treated diabetic-prone rats
  intraluminal zonulin, treated rats that developed diabetes versus treated rats that did not: 3 fold
Versus untreated controls
  intraluminal zonulin levels of treated rats that did not develop diabetes: comparable with the untreated controls
